Data taken from article PMC7893822.
These are yes or no findings as the source states them, for the method shown. Binding seen in cells or lysates may run through a third protein. Some results given as binding are weak or reduced against the parent protein; the word gives no strength. Sequences can lack the tags named with a protein.

The chains behind the UniProt entries cited, without tags or fusion partners.
UniProt Q28923: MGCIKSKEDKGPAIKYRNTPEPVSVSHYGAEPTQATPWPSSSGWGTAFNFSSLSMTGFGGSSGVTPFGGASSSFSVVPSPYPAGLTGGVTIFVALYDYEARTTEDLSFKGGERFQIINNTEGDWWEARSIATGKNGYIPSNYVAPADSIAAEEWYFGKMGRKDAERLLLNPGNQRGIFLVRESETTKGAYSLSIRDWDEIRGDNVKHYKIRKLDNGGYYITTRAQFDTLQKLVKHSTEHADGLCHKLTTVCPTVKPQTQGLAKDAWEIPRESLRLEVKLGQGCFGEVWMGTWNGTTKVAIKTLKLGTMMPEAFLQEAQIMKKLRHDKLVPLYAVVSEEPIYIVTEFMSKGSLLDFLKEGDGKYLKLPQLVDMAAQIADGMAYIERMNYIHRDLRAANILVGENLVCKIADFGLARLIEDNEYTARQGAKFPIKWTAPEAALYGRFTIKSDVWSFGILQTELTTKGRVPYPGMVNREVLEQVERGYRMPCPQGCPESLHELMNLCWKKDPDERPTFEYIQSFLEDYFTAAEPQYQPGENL

Biological target: T1, CDCP1-myc overexpressed in MDCK cells (human) (UniProt Q9H5V8)
T1 sequence: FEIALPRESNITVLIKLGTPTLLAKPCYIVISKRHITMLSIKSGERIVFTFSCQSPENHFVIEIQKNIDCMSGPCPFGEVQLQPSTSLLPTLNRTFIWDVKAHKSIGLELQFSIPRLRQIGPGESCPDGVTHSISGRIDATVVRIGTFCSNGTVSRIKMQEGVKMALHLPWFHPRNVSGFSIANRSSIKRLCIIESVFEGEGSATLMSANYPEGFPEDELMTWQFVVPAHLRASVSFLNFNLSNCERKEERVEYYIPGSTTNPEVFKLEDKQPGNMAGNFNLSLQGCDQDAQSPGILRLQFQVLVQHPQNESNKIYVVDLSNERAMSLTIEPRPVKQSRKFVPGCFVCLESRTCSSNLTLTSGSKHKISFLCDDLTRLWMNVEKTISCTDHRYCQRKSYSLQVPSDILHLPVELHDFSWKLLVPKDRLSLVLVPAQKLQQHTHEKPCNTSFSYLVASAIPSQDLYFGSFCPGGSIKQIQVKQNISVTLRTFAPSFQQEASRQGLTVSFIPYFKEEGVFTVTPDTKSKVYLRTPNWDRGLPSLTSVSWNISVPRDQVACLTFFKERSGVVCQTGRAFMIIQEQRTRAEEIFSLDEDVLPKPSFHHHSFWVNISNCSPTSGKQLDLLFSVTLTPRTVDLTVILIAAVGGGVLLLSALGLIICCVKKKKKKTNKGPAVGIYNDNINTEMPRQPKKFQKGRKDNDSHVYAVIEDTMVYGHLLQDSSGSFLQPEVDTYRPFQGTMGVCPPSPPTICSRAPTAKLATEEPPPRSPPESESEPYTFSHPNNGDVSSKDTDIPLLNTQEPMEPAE
Test: co-IP; DRM fractions of CDCP1-myc-overexpressing MDCK cells; immunoprecipitation with an anti-myc-tag, anti-Src, anti-Lyn or anti-Yes antibody; immunoblotting

binding: binds
Substance: Yes, endogenous in MDCK cells (from UniProt Q28923 1-539) (enzyme)
